Laboratory results reported in PMC7877769.
Results are given in words; binding and its absence hold for the method and conditions named. In cells and extracts the contact can be indirect. Sequences can lack the tags named with a protein.

Tests used:
[1] = biological target: T1, TgQCR9-FLAG (Toxoplasma gondii) (UniProt S7UVH4); assay: co-IP; parasite samples solubilized in 1% (v/v) Triton X-100; anti-HA affinity matrix or anti-FLAG M2 affinity gel; Total, Unbound and Bound fractions on SDS-PAGE, western blots with anti-HA, anti-FLAG and anti-TgTom40
T1 sequence: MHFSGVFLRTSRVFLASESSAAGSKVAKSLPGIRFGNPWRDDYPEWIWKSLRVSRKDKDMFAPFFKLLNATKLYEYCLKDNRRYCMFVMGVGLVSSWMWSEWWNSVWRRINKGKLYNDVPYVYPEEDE

[2] = biological target: T2, TgQCR11-FLAG (Toxoplasma gondii) (UniProt S7UR33); assay: as above
T2 sequence: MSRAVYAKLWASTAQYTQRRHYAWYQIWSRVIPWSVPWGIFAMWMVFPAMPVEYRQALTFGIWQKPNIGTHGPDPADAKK

TgTom40 (Toxoplasma gondii)
binding [1]: no binding
binding [2]: no binding
